# Reference: the supplement of paper PMC6411743
# By UniProt entry, the sequences of proteins in these tests, tags left out. Where a name states a change or a piece, a line headed by the entry shows the natural chain unless it says otherwise.
# UniProt Q8IX12: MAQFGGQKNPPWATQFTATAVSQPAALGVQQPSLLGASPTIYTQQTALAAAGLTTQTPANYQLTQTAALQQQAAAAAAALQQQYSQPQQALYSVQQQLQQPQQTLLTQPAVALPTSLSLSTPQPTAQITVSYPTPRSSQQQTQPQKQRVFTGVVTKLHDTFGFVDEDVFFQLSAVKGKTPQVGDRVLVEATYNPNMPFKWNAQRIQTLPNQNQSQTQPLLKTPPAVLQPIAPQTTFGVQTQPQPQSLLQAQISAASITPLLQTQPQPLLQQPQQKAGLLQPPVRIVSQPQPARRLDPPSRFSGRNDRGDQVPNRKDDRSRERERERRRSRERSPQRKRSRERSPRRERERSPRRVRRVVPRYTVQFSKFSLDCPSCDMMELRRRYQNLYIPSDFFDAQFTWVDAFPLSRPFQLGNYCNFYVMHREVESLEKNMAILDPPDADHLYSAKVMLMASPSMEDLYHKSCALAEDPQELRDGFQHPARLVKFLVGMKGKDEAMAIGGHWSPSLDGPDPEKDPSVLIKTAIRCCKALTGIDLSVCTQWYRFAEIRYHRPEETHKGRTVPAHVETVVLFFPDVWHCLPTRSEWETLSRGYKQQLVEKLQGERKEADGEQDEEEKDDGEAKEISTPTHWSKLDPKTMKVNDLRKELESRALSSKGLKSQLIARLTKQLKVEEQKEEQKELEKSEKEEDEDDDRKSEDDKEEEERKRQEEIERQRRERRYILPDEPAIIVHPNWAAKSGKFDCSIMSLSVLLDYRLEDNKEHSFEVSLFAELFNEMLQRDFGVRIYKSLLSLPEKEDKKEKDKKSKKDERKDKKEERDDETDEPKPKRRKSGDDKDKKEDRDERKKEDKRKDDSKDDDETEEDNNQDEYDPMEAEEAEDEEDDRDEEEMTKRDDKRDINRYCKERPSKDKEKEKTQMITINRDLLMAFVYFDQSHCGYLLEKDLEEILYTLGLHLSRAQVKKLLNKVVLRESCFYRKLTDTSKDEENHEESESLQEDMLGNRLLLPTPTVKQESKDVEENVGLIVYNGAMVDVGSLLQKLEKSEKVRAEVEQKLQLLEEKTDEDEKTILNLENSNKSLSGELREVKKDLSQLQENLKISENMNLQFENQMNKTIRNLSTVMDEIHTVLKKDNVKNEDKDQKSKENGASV
# UniProt Q8N6T3: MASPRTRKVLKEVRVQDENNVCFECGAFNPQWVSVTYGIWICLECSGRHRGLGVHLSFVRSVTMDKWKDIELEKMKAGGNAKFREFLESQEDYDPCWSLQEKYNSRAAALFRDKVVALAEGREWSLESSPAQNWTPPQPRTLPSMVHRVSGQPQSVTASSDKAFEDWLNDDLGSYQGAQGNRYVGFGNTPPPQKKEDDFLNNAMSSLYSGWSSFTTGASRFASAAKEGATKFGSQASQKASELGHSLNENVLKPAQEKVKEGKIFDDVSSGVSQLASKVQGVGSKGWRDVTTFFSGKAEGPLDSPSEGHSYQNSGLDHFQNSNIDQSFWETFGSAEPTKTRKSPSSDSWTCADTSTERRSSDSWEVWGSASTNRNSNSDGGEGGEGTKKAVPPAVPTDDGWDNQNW
# UniProt Q8N3D4: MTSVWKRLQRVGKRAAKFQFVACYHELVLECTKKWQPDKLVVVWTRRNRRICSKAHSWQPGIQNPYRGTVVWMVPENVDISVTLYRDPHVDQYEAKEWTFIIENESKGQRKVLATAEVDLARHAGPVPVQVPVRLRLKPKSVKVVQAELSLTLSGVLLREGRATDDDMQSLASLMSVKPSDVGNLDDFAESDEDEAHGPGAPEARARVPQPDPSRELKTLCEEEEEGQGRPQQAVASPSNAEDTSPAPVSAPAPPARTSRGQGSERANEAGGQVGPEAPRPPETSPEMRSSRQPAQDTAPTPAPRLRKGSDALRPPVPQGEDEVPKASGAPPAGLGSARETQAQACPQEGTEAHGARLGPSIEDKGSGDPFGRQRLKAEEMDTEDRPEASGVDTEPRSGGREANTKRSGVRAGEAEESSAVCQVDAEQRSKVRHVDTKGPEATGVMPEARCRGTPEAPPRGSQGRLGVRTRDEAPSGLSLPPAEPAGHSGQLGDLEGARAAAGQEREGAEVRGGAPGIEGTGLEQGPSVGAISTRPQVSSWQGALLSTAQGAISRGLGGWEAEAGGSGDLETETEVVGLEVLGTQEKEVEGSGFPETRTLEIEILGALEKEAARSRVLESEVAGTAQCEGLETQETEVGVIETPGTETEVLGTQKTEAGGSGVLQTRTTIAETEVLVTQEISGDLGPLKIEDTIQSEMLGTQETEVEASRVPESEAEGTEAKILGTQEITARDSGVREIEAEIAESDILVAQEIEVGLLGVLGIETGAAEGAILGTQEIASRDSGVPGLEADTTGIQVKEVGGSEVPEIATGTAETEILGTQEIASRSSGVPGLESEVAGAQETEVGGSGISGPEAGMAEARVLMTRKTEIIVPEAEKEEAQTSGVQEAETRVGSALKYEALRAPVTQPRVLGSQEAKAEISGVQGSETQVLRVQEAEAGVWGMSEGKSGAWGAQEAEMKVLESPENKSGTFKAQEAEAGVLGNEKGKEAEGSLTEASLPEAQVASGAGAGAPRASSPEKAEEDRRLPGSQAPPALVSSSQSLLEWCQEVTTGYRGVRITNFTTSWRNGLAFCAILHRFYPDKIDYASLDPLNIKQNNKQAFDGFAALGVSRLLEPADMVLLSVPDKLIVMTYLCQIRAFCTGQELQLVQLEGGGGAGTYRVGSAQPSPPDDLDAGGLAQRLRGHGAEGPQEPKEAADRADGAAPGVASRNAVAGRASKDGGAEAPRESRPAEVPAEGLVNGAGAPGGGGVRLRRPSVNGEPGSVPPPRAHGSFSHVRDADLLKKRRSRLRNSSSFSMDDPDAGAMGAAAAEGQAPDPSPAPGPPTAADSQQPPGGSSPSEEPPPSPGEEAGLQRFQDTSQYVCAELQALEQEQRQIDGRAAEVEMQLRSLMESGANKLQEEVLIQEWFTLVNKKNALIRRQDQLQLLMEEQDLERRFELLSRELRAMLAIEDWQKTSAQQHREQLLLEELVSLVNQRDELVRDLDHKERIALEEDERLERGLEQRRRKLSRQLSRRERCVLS
# UniProt Q8N2W9: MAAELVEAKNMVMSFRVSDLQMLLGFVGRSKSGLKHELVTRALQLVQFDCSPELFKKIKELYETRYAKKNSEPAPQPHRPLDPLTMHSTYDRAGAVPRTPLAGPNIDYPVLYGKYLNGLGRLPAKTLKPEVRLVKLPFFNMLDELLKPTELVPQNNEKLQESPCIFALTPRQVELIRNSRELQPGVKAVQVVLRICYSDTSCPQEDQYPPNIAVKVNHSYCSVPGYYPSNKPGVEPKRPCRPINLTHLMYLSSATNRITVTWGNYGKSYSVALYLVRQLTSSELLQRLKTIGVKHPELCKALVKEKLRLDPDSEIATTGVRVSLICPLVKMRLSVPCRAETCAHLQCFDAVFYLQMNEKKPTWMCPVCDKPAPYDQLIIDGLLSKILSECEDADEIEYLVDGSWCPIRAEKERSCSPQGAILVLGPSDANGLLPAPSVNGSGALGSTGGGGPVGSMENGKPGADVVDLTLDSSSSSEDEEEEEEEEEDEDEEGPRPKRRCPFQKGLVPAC
# UniProt Q8N9R8: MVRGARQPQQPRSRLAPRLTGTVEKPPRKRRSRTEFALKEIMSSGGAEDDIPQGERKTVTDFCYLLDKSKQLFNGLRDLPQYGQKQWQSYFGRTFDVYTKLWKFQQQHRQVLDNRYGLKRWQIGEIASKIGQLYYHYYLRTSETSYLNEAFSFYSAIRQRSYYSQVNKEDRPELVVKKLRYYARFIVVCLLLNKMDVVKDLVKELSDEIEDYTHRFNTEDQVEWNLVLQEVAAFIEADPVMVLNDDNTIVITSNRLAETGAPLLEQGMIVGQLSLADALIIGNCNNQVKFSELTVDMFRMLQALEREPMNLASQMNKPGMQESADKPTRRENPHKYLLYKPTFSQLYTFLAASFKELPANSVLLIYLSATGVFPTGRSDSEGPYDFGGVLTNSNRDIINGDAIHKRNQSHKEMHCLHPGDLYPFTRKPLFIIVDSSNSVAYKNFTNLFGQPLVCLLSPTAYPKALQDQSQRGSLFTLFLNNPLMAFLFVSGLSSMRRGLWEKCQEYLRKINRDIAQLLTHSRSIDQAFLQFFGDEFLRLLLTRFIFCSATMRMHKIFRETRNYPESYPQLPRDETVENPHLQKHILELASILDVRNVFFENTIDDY
# UniProt Q8IW35: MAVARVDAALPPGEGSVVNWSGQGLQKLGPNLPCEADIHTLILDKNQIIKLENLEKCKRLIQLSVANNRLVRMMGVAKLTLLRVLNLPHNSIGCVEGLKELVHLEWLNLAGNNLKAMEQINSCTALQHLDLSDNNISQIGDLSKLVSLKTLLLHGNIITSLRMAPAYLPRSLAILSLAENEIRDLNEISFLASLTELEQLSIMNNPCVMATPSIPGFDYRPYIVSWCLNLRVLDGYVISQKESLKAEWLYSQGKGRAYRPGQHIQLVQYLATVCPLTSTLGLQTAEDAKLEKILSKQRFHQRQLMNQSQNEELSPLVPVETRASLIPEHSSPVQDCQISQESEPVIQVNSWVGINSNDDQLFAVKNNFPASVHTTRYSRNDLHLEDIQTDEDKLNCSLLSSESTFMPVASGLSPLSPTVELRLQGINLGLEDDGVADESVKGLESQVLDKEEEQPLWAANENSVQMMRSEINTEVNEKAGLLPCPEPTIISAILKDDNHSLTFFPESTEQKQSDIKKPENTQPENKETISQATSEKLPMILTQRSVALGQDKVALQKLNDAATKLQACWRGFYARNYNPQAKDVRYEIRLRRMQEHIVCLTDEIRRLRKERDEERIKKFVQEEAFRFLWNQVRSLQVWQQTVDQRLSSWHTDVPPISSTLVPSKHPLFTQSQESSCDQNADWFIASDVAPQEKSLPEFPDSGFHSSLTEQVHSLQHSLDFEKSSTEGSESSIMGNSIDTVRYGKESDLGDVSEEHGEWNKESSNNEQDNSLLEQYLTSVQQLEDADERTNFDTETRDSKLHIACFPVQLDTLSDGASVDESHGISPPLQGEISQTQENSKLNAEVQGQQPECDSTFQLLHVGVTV
# UniProt Q8NHU6: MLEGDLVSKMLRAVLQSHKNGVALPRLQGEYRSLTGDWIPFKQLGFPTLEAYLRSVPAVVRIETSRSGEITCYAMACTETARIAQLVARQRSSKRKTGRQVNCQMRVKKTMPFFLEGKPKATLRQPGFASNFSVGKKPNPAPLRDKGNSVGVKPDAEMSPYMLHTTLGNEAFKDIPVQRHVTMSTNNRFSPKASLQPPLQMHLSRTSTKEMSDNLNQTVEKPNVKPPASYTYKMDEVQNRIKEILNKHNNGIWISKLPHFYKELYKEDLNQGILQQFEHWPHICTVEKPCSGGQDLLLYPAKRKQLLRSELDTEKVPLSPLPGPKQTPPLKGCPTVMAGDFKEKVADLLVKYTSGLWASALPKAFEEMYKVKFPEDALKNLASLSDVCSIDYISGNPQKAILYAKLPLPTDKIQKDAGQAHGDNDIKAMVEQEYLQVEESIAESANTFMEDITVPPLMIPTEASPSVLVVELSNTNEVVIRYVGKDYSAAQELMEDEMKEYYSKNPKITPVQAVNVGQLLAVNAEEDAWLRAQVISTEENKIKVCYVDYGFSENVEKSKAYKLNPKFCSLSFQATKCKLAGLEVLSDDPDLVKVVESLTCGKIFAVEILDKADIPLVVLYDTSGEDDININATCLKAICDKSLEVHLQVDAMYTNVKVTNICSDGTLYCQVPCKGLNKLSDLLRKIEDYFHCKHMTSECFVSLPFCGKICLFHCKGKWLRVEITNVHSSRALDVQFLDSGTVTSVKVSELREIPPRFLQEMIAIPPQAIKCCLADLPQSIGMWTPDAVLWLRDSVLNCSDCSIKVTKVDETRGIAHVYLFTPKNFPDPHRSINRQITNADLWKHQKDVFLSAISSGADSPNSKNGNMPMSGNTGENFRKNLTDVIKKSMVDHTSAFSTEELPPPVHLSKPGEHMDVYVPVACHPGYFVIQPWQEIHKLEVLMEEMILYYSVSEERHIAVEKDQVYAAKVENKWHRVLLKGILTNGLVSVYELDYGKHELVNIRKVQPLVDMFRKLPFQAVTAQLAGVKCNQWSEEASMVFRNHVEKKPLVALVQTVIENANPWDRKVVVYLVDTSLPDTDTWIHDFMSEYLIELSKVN
# UniProt Q8N668, whole entry: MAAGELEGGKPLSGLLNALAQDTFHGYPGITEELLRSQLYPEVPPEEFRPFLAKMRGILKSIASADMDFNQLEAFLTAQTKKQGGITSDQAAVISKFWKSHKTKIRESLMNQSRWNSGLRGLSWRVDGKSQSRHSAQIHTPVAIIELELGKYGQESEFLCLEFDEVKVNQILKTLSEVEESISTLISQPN
# UniProt Q8IWT0: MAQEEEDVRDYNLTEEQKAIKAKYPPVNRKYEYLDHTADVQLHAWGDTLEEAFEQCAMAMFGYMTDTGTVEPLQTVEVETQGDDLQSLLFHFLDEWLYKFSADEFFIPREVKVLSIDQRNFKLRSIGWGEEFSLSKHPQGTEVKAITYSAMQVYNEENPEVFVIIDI
# ± gives the standard deviation of the averaged measurements. The list shows a part of the results, in another mix than the full data. Small differences around the control level are noise.
# Compound: Nc1ncnc2c1ncn2[C@@H]1O[C@H](COP(=O)(O)OP(=O)(O)OP(=O)(O)O)[C@@H](O)[C@H]1O [adenosine triphosphate]
# Assay: NP40-soluble protein abundance relative to vehicle (solubility fold change) (ratio); higher = more soluble protein in presence of ATP
# Summary of the method: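 Jurkat crude lysate prepared with a Dounce homogeniser was treated at eight concentrations spanning 0.1 to 10 mM, 10 min at room temperature then 3 min at 37 °C. Solubilisation with 0.8% NP40 and benzonase and ultracentrifugation preceded TMT labelling of the supernatant for LC-MS/MS. Fold change against the detergent-processed vehicle was determined per replicate from vsn-normalised intensities, across three independent experiments.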
target,measurement,setting,value
UniProt Q8N5Y2 and related entries,NP40-soluble protein abundance,concentration: 0.1mM,1.03 ± 0.098
same,NP40-soluble protein abundance,concentration: 0.5mM,1.22 ± 0.052
UniProt Q8NBU5,NP40-soluble protein abundance,concentration: 0.1mM,1.03 ± 0.055
same,NP40-soluble protein abundance,concentration: 0.5mM,1.06 ± 0.073
UniProt Q8NC51 and related entries,NP40-soluble protein abundance,concentration: 0.1mM,0.93 ± 0.062
same,NP40-soluble protein abundance,concentration: 0.5mM,0.972 ± 0.042
UniProt Q8NEZ4 and related entries,NP40-soluble protein abundance,concentration: 0.1mM,1.024 ± 0.01
same,NP40-soluble protein abundance,concentration: 0.5mM,1.03 ± 0.038
UniProt Q8IX12 and related entries,NP40-soluble protein abundance,concentration: 0.1mM,1 ± 0.044
same,NP40-soluble protein abundance,concentration: 0.5mM,0.986 ± 0.058
RBM12B (UniProt Q8IXT5),NP40-soluble protein abundance,concentration: 0.1mM,0.994 ± 0.063
same,NP40-soluble protein abundance,concentration: 0.5mM,1.01 ± 0.031
KBTBD8 (UniProt Q8NFY9),NP40-soluble protein abundance,concentration: 0.1mM,1 ± 0.12
same,NP40-soluble protein abundance,concentration: 0.5mM,1.09 ± 0.025
AGGF1 (UniProt Q8N302),NP40-soluble protein abundance,concentration: 0.1mM,1 ± 0.045
same,NP40-soluble protein abundance,concentration: 0.5mM,1.02 ± 0.14
LMTK2 (UniProt Q8IWU2),NP40-soluble protein abundance,concentration: 0.1mM,0.983 ± 0.1
same,NP40-soluble protein abundance,concentration: 0.5mM,0.943 ± 0.1
ARFGAP1 (UniProt Q8N6T3),NP40-soluble protein abundance,concentration: 0.1mM,0.98 ± 0.021
same,NP40-soluble protein abundance,concentration: 0.5mM,0.9992 ± 0.0059
UniProt Q8IWA5-2,NP40-soluble protein abundance,concentration: 0.1mM,0.947 ± 0.033
same,NP40-soluble protein abundance,concentration: 0.5mM,0.9232 ± 0.0027
EHBP1L1 (UniProt Q8N3D4),NP40-soluble protein abundance,concentration: 0.1mM,1 ± 0.066
same,NP40-soluble protein abundance,concentration: 0.5mM,0.965 ± 0.038
UniProt Q8TAC1 and related entries,NP40-soluble protein abundance,concentration: 0.1mM,1.05 ± 0.096
same,NP40-soluble protein abundance,concentration: 0.5mM,1.08 ± 0.025
PIAS4 (UniProt Q8N2W9),NP40-soluble protein abundance,concentration: 0.1mM,0.975 ± 0.053
same,NP40-soluble protein abundance,concentration: 0.5mM,0.975 ± 0.1
C2orf69 (UniProt Q8N8R5),NP40-soluble protein abundance,concentration: 0.1mM,1.03 ± 0.053
same,NP40-soluble protein abundance,concentration: 0.5mM,1.02 ± 0.044
CISD2 (UniProt Q8N5K1),NP40-soluble protein abundance,concentration: 0.1mM,1.04 ± 0.047
same,NP40-soluble protein abundance,concentration: 0.5mM,0.988 ± 0.045
UniProt Q8N9R8 and related entries,NP40-soluble protein abundance,concentration: 0.1mM,1.05 ± 0.06
same,NP40-soluble protein abundance,concentration: 0.5mM,1.03 ± 0.015
UniProt Q8ND04 and related entries,NP40-soluble protein abundance,concentration: 0.1mM,1.01 ± 0.028
same,NP40-soluble protein abundance,concentration: 0.5mM,1.01 ± 0.066
UniProt Q8IW35 and related entries,NP40-soluble protein abundance,concentration: 0.1mM,0.996 ± 0.017
same,NP40-soluble protein abundance,concentration: 0.5mM,0.995 ± 0.025
UniProt Q8IZH2 and related entries,NP40-soluble protein abundance,concentration: 0.1mM,0.995 ± 0.033
same,NP40-soluble protein abundance,concentration: 0.5mM,1.04 ± 0.03
UniProt Q8NHU6 and related entries,NP40-soluble protein abundance,concentration: 0.1mM,1.05 ± 0.045
same,NP40-soluble protein abundance,concentration: 0.5mM,1.03 ± 0.063
USP38 (UniProt Q8NB14),NP40-soluble protein abundance,concentration: 0.1mM,1.08 ± 0.04
same,NP40-soluble protein abundance,concentration: 0.5mM,1.05 ± 0.089
COMMD1 (UniProt Q8N668),NP40-soluble protein abundance,concentration: 0.1mM,0.913 ± 0.1
same,NP40-soluble protein abundance,concentration: 0.5mM,0.901 ± 0.15
UniProt Q8IW45,NP40-soluble protein abundance,concentration: 0.1mM,1 ± 0.019
same,NP40-soluble protein abundance,concentration: 0.5mM,0.992 ± 0.028
DDX60 (UniProt Q8IY21),NP40-soluble protein abundance,concentration: 0.1mM,0.984 ± 0.038
same,NP40-soluble protein abundance,concentration: 0.5mM,1.07 ± 0.091
same,NP40-soluble protein abundance,concentration: 1mM,1.2 ± 0.078
same,NP40-soluble protein abundance,concentration: 2mM,1.27 ± 0.093
same,NP40-soluble protein abundance,concentration: 4mM,1.66 ± 0.11
same,NP40-soluble protein abundance,concentration: 6mM,1.73 ± 0.15
same,NP40-soluble protein abundance,concentration: 8mM,1.9 ± 0.16
same,NP40-soluble protein abundance,concentration: 10mM,1.95 ± 0.11
ZNF687 (UniProt Q8N1G0),NP40-soluble protein abundance,concentration: 0.1mM,0.952 ± 0.13
same,NP40-soluble protein abundance,concentration: 0.5mM,1.03 ± 0.12
ZBTB8OS (UniProt Q8IWT0),NP40-soluble protein abundance,concentration: 0.1mM,1.13 ± 0.19
same,NP40-soluble protein abundance,concentration: 0.5mM,1.16 ± 0.27
CCDC82 (UniProt Q8N4S0),NP40-soluble protein abundance,concentration: 0.1mM,0.894 ± 0.024
same,NP40-soluble protein abundance,concentration: 0.5mM,0.733 ± 0.037
UniProt Q8N684 and related entries,NP40-soluble protein abundance,concentration: 0.1mM,1.03 ± 0.023
same,NP40-soluble protein abundance,concentration: 0.5mM,1.33 ± 0.06
same,NP40-soluble protein abundance,concentration: 1mM,1.51 ± 0.076
same,NP40-soluble protein abundance,concentration: 2mM,1.61 ± 0.016
same,NP40-soluble protein abundance,concentration: 4mM,1.75 ± 0.065
same,NP40-soluble protein abundance,concentration: 6mM,1.81 ± 0.081
same,NP40-soluble protein abundance,concentration: 8mM,1.82 ± 0.055
same,NP40-soluble protein abundance,concentration: 10mM,1.83 ± 0.032
UniProt Q8IZ81 and related entries,NP40-soluble protein abundance,concentration: 0.1mM,1.04 ± 0.069
same,NP40-soluble protein abundance,concentration: 0.5mM,1.04 ± 0.08
same,NP40-soluble protein abundance,concentration: 1mM,1.01 ± 0.11
same,NP40-soluble protein abundance,concentration: 2mM,0.966 ± 0.089
same,NP40-soluble protein abundance,concentration: 4mM,0.958 ± 0.094
same,NP40-soluble protein abundance,concentration: 6mM,0.916 ± 0.12
same,NP40-soluble protein abundance,concentration: 8mM,0.967 ± 0.045
same,NP40-soluble protein abundance,concentration: 10mM,0.958 ± 0.057

# 2 entries from above, set out differently:
target | measurement | setting | value
LMTK2 (UniProt Q8IWU2) | NP40-soluble protein abundance | concentration: 0.1mM | 0.983 ± 0.1
EHBP1L1 (UniProt Q8N3D4) | NP40-soluble protein abundance | concentration: 0.5mM | 0.965 ± 0.038

# Not a retest: an excerpt of the list.
target,measurement,setting,value
KBTBD8 (UniProt Q8NFY9),NP40-soluble protein abundance,concentration: 0.1mM,1 ± 0.12
same,NP40-soluble protein abundance,concentration: 0.5mM,1.09 ± 0.025

# A second format for part of the listing above.
target | measurement | setting | value
UniProt Q8N684 and related entries | NP40-soluble protein abundance | concentration: 6mM | 1.81 ± 0.081
same | NP40-soluble protein abundance | concentration: 8mM | 1.82 ± 0.055
